{
  "sequences": {"note": "By UniProt entry, the sequences of proteins in these tests, tags left out.", "UniProt O75679": "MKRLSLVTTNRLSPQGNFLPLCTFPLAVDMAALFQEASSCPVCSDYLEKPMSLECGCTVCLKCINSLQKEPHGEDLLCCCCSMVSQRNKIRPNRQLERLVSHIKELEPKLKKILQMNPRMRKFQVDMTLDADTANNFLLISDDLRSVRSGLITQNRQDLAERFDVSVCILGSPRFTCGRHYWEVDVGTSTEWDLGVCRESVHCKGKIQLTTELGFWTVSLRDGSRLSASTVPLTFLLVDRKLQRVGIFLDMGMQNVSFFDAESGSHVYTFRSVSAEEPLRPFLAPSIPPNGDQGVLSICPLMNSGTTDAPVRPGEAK", "UniProt Q92793": "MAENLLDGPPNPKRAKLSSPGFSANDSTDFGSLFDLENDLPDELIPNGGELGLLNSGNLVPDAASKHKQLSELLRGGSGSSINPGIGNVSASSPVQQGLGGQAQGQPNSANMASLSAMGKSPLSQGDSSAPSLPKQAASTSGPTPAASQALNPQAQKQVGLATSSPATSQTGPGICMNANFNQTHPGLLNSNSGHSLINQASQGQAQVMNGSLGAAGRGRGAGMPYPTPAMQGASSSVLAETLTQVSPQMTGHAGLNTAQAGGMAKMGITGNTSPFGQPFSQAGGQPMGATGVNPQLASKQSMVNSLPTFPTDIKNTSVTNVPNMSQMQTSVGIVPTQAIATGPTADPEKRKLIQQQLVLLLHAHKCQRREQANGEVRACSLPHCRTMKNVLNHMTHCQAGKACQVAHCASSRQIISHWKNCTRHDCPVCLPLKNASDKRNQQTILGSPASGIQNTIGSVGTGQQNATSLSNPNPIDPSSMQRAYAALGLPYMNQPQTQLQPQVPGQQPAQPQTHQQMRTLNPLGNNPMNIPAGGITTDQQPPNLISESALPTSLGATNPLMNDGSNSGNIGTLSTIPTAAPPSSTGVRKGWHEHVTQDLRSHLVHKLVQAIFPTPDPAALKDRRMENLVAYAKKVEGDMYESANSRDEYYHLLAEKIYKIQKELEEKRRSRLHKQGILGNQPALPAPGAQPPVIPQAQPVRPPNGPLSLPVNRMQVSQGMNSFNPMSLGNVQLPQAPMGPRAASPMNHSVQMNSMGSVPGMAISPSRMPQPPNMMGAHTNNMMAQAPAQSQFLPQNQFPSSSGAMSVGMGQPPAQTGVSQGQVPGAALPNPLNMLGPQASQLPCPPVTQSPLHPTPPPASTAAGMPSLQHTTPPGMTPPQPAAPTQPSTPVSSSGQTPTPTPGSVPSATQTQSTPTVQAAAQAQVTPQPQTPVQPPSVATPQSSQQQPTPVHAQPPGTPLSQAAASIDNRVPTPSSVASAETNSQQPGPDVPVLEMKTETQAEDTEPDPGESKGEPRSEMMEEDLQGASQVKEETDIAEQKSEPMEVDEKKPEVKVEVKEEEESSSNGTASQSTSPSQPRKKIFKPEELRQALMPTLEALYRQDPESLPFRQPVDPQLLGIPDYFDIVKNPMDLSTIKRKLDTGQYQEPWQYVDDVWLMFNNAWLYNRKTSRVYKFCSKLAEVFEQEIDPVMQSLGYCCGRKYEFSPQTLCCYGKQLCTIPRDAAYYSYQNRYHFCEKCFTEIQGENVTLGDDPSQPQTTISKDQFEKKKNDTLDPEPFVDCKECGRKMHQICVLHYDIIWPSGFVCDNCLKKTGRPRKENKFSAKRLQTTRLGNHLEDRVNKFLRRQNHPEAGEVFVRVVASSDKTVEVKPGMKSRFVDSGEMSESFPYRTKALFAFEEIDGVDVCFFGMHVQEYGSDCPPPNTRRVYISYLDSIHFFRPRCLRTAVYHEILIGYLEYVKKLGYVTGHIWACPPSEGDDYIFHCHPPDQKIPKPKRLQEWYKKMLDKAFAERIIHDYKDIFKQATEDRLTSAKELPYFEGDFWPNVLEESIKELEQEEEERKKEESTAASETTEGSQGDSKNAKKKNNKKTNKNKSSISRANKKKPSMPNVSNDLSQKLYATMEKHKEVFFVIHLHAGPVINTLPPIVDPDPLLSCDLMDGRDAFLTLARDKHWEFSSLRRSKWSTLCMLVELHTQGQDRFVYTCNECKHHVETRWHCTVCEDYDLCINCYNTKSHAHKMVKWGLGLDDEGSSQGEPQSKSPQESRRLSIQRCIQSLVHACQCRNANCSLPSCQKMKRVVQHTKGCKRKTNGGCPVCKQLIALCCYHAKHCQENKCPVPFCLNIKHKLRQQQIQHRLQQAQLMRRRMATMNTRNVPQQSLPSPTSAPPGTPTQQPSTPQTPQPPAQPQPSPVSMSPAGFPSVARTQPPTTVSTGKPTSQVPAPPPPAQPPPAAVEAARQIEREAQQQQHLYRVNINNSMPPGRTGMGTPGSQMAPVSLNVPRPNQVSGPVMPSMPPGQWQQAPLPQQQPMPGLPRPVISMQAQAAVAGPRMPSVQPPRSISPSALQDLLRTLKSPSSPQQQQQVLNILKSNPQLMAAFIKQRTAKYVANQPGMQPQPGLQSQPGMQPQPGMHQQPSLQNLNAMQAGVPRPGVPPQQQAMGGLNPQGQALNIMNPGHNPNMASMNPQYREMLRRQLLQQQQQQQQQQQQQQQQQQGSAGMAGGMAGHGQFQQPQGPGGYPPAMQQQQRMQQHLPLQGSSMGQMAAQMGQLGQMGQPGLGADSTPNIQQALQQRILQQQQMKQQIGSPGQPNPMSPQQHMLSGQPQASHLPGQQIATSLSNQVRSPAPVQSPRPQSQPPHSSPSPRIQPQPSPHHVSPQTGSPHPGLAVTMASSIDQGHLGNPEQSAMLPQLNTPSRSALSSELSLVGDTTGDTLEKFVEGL"},
  "source": "paper PMC9197637",
  "biological_target": "RFPL-3 (human (endogenous in breast cancer cells)) (UniProt O75679)",
  "experiment": "co-IP; nuclear extracts from breast cancer cells immunoprecipitated with anti-RFPL3, complexes immunoblotted with anti-CBP",
  "note": "These are yes or no findings as the source states them, for the method shown. Binding seen in cells or lysates may run through a third protein. Some binding calls cover weakened binding; strength is not graded here.",
  "data": [
    {"substance": "CBP (from UniProt Q92793 1-2442)", "values": [
      {"measurement": "binding", "result": "binds"}
    ]}
  ]
}
